# No constants are given. Whether binding was seen depends on the method and setting. Binding seen in cells or lysates may run through a third protein. Here binding means that the protein was enriched with, or labelled near, the bait; the list need not be complete. Tags and fused reporters may be left off the sequences shown.
# The chains behind the UniProt entries cited, without tags or fusion partners.
# UniProt P51812: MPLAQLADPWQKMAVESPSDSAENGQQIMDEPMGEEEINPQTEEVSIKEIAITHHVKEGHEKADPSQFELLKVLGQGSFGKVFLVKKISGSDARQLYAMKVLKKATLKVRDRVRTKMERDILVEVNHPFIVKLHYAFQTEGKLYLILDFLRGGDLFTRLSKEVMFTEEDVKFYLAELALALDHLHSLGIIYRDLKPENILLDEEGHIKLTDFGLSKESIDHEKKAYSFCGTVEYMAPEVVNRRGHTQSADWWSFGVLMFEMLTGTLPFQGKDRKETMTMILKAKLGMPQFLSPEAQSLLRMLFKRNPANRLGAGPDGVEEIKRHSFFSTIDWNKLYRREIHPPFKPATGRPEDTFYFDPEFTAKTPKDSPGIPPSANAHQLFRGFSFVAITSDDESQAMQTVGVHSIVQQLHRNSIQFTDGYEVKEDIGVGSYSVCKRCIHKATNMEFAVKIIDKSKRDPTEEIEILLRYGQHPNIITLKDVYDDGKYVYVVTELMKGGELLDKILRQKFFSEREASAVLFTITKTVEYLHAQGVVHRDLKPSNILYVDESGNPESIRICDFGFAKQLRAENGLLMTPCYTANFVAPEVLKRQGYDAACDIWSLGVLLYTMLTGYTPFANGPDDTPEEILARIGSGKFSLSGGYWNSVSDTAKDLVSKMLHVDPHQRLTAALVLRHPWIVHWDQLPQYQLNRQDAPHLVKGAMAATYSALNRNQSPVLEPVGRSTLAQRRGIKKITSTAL
# Target: T1, iRhom2 wild type (HA-tagged) (human) (UniProt Q6PJF5)
# T1 sequence: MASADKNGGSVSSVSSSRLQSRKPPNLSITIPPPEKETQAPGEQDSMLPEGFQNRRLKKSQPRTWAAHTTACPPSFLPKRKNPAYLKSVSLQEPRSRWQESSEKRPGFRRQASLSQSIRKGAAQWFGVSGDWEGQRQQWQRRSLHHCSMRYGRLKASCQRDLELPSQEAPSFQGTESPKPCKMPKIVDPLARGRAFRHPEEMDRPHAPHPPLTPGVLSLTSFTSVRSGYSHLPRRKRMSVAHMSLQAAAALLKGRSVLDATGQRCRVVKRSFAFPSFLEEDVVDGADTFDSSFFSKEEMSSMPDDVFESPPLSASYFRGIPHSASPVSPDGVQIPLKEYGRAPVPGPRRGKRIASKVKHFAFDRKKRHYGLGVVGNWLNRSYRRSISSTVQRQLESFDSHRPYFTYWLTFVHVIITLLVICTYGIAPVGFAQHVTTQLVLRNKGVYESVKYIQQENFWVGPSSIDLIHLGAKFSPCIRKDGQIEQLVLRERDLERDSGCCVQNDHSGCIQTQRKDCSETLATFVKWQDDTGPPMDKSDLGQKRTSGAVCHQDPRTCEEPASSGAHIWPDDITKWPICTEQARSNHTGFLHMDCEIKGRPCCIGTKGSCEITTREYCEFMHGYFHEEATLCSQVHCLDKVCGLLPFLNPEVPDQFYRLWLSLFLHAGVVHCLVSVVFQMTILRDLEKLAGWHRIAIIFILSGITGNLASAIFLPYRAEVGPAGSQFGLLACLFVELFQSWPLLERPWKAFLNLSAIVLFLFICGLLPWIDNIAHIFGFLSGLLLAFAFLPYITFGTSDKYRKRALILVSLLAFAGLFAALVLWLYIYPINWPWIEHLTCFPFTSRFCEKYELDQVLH
# Assay: affinity purification with mass spectrometry; HA-tagged WT iRhom2 pulled down on anti-HA beads from cells expressing oncogenic KRAS G12V or GFP control; DDM RIPA lysis buffer (1% DDM, 150 mM NaCl, 50 mM Tris-HCl pH 7.5, 0.1% SDS, 0.5% deoxycholate); on-bead digest, LC-MS/MS, NSAF
substance,measurement,value
"ribosomal protein S6 kinase alpha-3 (RSK2), endogenous (from UniProt P51812 1-740) (enzyme)",binding,binds
